The subject of the assay is scopolamine-induced amnesia in mice. Put plainly: Elevated plus maze (EPM), scopolamine-induced amnesia. Type of assay: in vivo, Balb/C mice. To be noted: scopolamine 1 mg/kg i.p. alone, negative control (amnesic group); n = 6. The method, then: Balb/C mice iwth a weight of (17–23 gm) were procured from the NIH (National Institute of Health), Islamabad, which were kept for breeding under favorable conditions in the animal house of the Pharmacy Department, Shaheed Benazir Bhutto University Sheringal Dir (Upper). Light/dark cycle of about 12 h each was maintained, with relative humidity of 50–55% at 22–25 °C. This work was conducted with approval from the Departmental Ethical Committee (SBBU/IEC-20-02) of the Scientific Procedure Issue-I of the University of Malakand in compliance with provision of the 2008 Animal Byelaws.
Mice were divided into thirteen groups with 6 mice in each group.
Group I. Normal control group (vehicle treated) received 10 mL/kg (i.p.) normal saline.
Group IV–XIII. Sample (curcumin analog)-treated groups. Synthesized curcumin analogs were administered in doses of 7.5 mg/kg and 15 mg/kg (p.o.), respectively.
The groups were kept for 7 days at various treatments doses.
The EPM consisted of two open arms and two closed arms with dimensions of 16 cm × 5 cm × 12 cm, and was made from two poly acrylic sheets and designed as a plus sign with a central platform with dimensions of 5 cm × 5 cm, which was elevated 25 cm from the floor on a wooden stand. […]

As to `CN1[C@@H]2C[C@@H](OC(=O)[C@H](CO)c3ccccc3)C[C@H]1[C@@H]1O[C@@H]12` [Scopolamine, reference compound], the “Retention (transfer latency time, TLT)” value was determined as 67.31 ± 1.24 s.

Values taken from article PMC8659060, “Neuroprotective Potential of Synthetic Mono-Carbonyl Curcumin Analogs Assessed by Molecular Docking Studies” (Molecules, 2021).
